Data on one sequence can be found in article PMC4423239.

Residue numbers refer to the chain shown, from its start. For some of these results: Negatives hold for the conditions tested. For some of these results: Tags and fusion partners may be left off the protein sequences shown. For some of these results: For at least one entry, the source does not settle the construct or the ends of the probe. For some of these results: Weaker means in comparison with the reference protein, sequence or condition of that experiment. For some of these results: At least one verdict was read from the data and is not stated in words by the source.

For data set [1], the target named is T1, mC5a (mouse) (UniProt P06684).
T1 sequence (looked up, limits assumed): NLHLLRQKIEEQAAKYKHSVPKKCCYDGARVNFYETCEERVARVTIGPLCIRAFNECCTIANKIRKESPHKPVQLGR
In words: crystal structure (1.8 A). The following applies: Ca2+ (3 per aptamer), Mg2+ (1 per aptamer); all L-nucleotides (Spiegelmer); L-RNA with L-deoxy at dU7, dG14, dA15, dU28, dU30, dC38; recombinant protein; protein details: Trx-His6-TEV tag, removed with TEV; synthetic backbone.

Data set [2] has as its target T1, mC5a (mouse). In words: SPR. The settings on record: all L-nucleotides (Spiegelmer), L-RNA with L-deoxy at dU7, dG14, dA15, dU28, dU30, dC38, SPR (Biacore 2000, C5a immobilized on CM5): 20 mM Tris pH 7.4, 150 mM NaCl, 5 mM KCl, 1 mM MgCl2, 1 mM CaCl2, 37 C, recombinant protein, protein details: Trx-His6-TEV tag, removed with TEV, synthetic backbone.
For data set [3], the target named is T2, hC5a WT (R&D Systems) (human) (UniProt P01031).
T2 sequence (looked up, limits assumed): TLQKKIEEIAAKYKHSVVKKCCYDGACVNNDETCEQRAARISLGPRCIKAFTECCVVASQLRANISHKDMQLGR
The data set can be described thus: SPR. The following applies: all L-nucleotides (Spiegelmer); L-RNA with L-deoxy at dU7, dG14, dA15, dU28, dU30, dC38; SPR (Biacore 2000, C5a immobilized on CM5): 20 mM Tris pH 7.4, 150 mM NaCl, 5 mM KCl, 1 mM MgCl2, 1 mM CaCl2, 37 C; commercial protein; synthetic backbone. A general note: Surface plasmon resonance follows binding to a sensor surface in real time, without labels.

A further data set deals with T3, hC5a(Cys704Arg) (human) (UniProt P01031).
T3 sequence (looked up, limits assumed): T2 sequence (looked up, limits assumed) with C27R
In words: SPR. The following applies: all L-nucleotides (Spiegelmer); L-RNA with L-deoxy at dU7, dG14, dA15, dU28, dU30, dC38; SPR (Biacore 2000, C5a immobilized on CM5): 20 mM Tris pH 7.4, 150 mM NaCl, 5 mM KCl, 1 mM MgCl2, 1 mM CaCl2, 37 C; recombinant protein; protein details: Trx-His6-TEV tag, removed with TEV; synthetic backbone.

Another data set concerns the target T4, mC5a-desArg (mouse) (UniProt P06684).
T4 sequence (looked up, limits assumed): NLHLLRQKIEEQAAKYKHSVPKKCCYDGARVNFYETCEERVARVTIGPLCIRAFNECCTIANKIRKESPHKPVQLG
In words: crystal structure (2.0 A). The settings on record: Ca2+, Mg2+; all L-nucleotides (Spiegelmer); L-RNA with L-deoxy at dU7, dG14, dA15, dU28, dU30, dC38; recombinant protein; protein details: Trx-His6-TEV tag, removed with TEV; synthetic backbone.

In data set [4] the target is T5, mC5a Ser697 mutant(s) S697A (mouse) (UniProt P06684).
T5 sequence (looked up, limits assumed): T1 sequence (looked up, limits assumed) with S19A
The data set can be described thus: SPR competition. The following applies: Ser697 crucial for binding; all L-nucleotides (Spiegelmer); L-RNA with L-deoxy at dU7, dG14, dA15, dU28, dU30, dC38; recombinant protein; protein details: Trx-His6-TEV tag, removed with TEV; synthetic backbone.

The subject of data set [5] is mC5a Val709 mutant(s) V709A (mouse). In words: SPR competition. The following applies: no reduced affinity; all L-nucleotides (Spiegelmer); L-RNA with L-deoxy at dU7, dG14, dA15, dU28, dU30, dC38; recombinant protein; protein details: Trx-His6-TEV tag, removed with TEV; synthetic backbone.
Data set [6] has as its target hC5a Val705 mutant(s) (human) (UniProt P01031). In words: SPR competition. The settings on record: no reduced affinity; all L-nucleotides (Spiegelmer); L-RNA with L-deoxy at dU7, dG14, dA15, dU28, dU30, dC38; recombinant protein; protein details: Trx-His6-TEV tag, removed with TEV; synthetic backbone.
The target in data set [7] is T6, hC5a Ser693 mutant(s) S693A,C704R (human) (UniProt P01031).
T6 sequence (looked up, limits assumed): T2 sequence (looked up, limits assumed) with S16A, C27R
The data set can be described thus: SPR competition. The following applies: Ser693 = mouse Ser697; all L-nucleotides (Spiegelmer); L-RNA with L-deoxy at dU7, dG14, dA15, dU28, dU30, dC38; recombinant protein; protein details: Trx-His6-TEV tag, removed with TEV; synthetic backbone.

As to “GCGAUGUGGUGGUGAAGGGUUGUUGGGUGUCGACGCACGC [NOX-D20]”, the binding result with mC5a (mouse) [1] is listed as “binds”; with mC5a (mouse) [2] (1 mM Ca2+, 1 mM Mg2+), “binds”; in the data set with mC5a (mouse) [2] (>2 mM EDTA), “no binding”; in the data set with mC5a (mouse) [2] (no Ca2+ in dissociation buffer (complex quickly dissociates)), “binds more weakly”; with mC5a (mouse) [2] (no K+ (equal binding)), “binds”; in the data set with mC5a (mouse) [2] (no K+, with Li+ (equal binding)), “binds”. Moreover, the binding result in data set [3] is recorded as “binds”; with hC5a(Cys704Arg) (human) it was “binds”; with mC5a-desArg (mouse), “binds”; in data set [4], “binds more weakly”; in data set [5] it was “binds”; in data set [6], “binds”. In addition, the binding result in data set [7] is reported as “binds more weakly”.
